Measurements taken from PubChem BioAssay AID1347423 (Functional Genomics Laboratory (NCATS/FGL), 2020).
Hit rate of the full screen: of about 52,000 sequences, about 210 (0.4%) were called active.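 How the source made its calls: active means gene whose silencing raises cell survival under the drug, median off-target-corrected z-score across its silencing RNAs 2 or more; inactive means the rest.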 This is one part of the list.

Assay: Resistance to Poly (ADP-Ribose) Polymerase inhibitor: Gene Identification via Genome-wide siRNA Screen
Settings: mouse BRCA2 R2336H ES cells, olaparib, CellTiter-Glo viability; active compounds read high
Outline: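 Genome-wide siRNA screen (3 siRNAs/gene, 20 nM) in mouse ES cells carrying hypomorphic BRCA2 R2336H; olaparib 500 nM added 48 h post-transfection, CellTiter-Glo viability 72 h later. Normalized to plate-median negative control; MAD z-scores, gene median, seed-adjusted.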

Sequence	z-score
GGAAGUCAUUAUGUGAUCCTT against Nfyb	inactive: -0.348
CCCUCAGAUGAUCUGUGCCTT against Tsp50	inactive: 3.4
GGUCCUAGGCCUACUCAUCTT against Mcp	inactive: -1.04
GCAGUGCUCUUUAGCAUAATT against 4933416E05Rik	inactive: 3.01
GCGGCCUCUUGAAUGAUUCTT against Ccndbp1	inactive: -1.48
CGGGCUCUUUGACAGUUCATT against Ppt2	inactive: -0.902
GCGCAUCCAGUGGUCCUUUTT against Trpv5	inactive: -0.142
GGGCAUGAAGAGCUACAUCTT against Snag1	inactive: -1.94
GGCACGUUAUGAAGACCAGTT against 4921506M07Rik	inactive: 2.53
GCCGACGUAGUGACAUUCUTT against Crybb3	inactive: -1.17
GGAUUAAAAUACCUUCACGTT against Map3k5	inactive: 0.351
GGAAAGAGAUACAGAAUCUTT against Brca2	inactive: -2.71
GGAGGAUAUAAAAAAGAAGTT against BC016226	inactive: -1.2
GCUCCGUAAGAAGUCUCGUTT against Dhx16	inactive: 0.915
CCGGAUCCUGGUUAAAAGUTT against Fgd1	inactive: -0.368
GCCAAUGAAAACCUUUUGCTT against BC003281	inactive: -0.334
GGGUAGGUUAGGGAGUAAATT against Siah1a	inactive: -0.917
GCAGUACAAAACCAAGCGGTT against Slc1a1	inactive: -1.37
GUCCCAGUACUUCUUGUUUTT against V1rc33	inactive: 0.755
GGGAUUAAAAUCCUAUCUUTT against BC014699	inactive: -2.46
GCAAGAGGGUUUGUUCCUUTT against Spc18	inactive: -0.714
GGUAAGACCUCACUUGGUCTT against A630024J02Rik	inactive: 0.908
GCAGUGUGAACAAUUGAGATT against Mpl	inactive: 0.238
GCACUCGAAAGCGAUGUAATT against LOC378878	inactive: -1.72
GGUUAAGAAUAACGAAAGGTT against Ipf1	inactive: 1.16
CCCAAUCAGCAAAGACGACTT against 5730502D15Rik	inactive: -1.09

Sequence	z-score
ACAACUAUACUGGACAGUCTT against Olfr329	inactive: 0.184
GGAACCUUAAAGAUAGAUUTT against Npepps	inactive: -0.119
GGGCAACCCACAAUAAAAATT against Eppb9	inactive: 1.26
GGAGGUCGCUACCUUCUAUTT against Top1mt	inactive: -0.693
CGAUGACGAAUACAACCGGTT against Nkx6-2	inactive: 0.663
GCAAACAUUCGAGAUCUAUTT against Sel1h	inactive: -0.355
GGUAGUAGGGAACCAUAAATT against D10628	inactive: -0.58
GGCUCUGUGGCACACUUAUTT against Olfr1211	inactive: -0.823
GGAACUCACUACAGUUUAGTT against Dhx35	inactive: -1.2
GGAACUGGAUCCUAGGAUATT against BC003251	inactive: 0.704
GGAUUGUGGGUUUAUAUAATT against Olfr835	inactive: 1.1
GGAAAGGACUGUAGAGCGATT against Eml4	inactive: -0.175
GCUCAGACCACCUAAGAGUTT against Tmprss3	inactive: 1.89
GGAGAUCAACCACAAUGUUTT against Tekt1	inactive: -1.81
CCUAUCUCACAUAGGUUUATT against Grb14	inactive: -0.162
GGUUAGUUUGUUCAAAUCCTT against Slc6a3	inactive: -0.0303
GGCAGCAGGAUGCAGAAAUTT against Ngef	inactive: -0.951
GGAGUCUUUAGUGACAUCCTT against AW549877	inactive: 1.48
GCCUCUUCGAACUCACUAUTT against Siat7c	inactive: -1.34
GGUAUUUUGACCGAAUCAATT against Add3	inactive: 0.61
GCAACAUCUUGGAUUUAGGTT against B230396O12Rik	inactive: -0.773
GGCCAUGGCAGCUUAGAUUTT against Siat8a	inactive: 0.731
UUAAGGUCACCUUCAAUGCTT against Cox11	inactive: -1.84
GGAGCUGAGAGUAAAUGAATT against Clcnkb	inactive: -0.644
GCAAGUCUGCUAAAGGAUUTT against Taf5l	inactive: 1.56
CCUUUCUCUAAGGAGUUAUTT against A630033E08Rik	inactive: -0.212

In a second layout: results already given.
Sequence | z-score
GCGCAUCCAGUGGUCCUUUTT against Trpv5 | inactive: -0.142
GGGCAUGAAGAGCUACAUCTT against Snag1 | inactive: -1.94
GGCACGUUAUGAAGACCAGTT against 4921506M07Rik | inactive: 2.53
GCCGACGUAGUGACAUUCUTT against Crybb3 | inactive: -1.17

Look-ups from the entries so far:
Entry of CCUUUCUCUAAGGAGUUAUTT against A630033E08Rik under z-score: inactive: -0.212
Entry of GGAGAUCAACCACAAUGUUTT against Tekt1 under z-score: inactive: -1.81

Continued.

Sequence	z-score
CGCAGGUGAGAGCAAUGUUTT against 1110067I12Rik	inactive: 0.149
GGUGAAAAGGUUGAUGUCATT against 4921530L21Rik	inactive: -0.856
GGGACAAGUGGUUGAAACCTT against LOC381813	inactive: -0.445
GGAUCAUUCUGUGAACAAGTT against Ly6h	inactive: -1.24
GGUAGAUGAAGUCCUUUAUTT against Mthfs	inactive: 0.0266
GGAUGAUUGCCAAAGCAGATT against Eps8	inactive: 0.824
CCUAUCGACACUGCCGAAATT against B3gnt4	inactive: 0.407
GCUAACCACCAAACCUUCUTT against A430110N23	inactive: 1.71
GGAGAAGCUGAAAGGUUAUTT against Ifrd2	inactive: 0.555
CCUUAUUGGAUCUUGUUCGTT against 4932415G16Rik	inactive: 0.16
GGGCAAGAGAGUAGAACUGTT against D030051N19Rik	inactive: 0.175
GGUCUGAGCAUUCUCAGCATT against Mrgprb2	inactive: -0.804
GCUUAUGACUUAAAAGCCCTT against 2610020C11Rik	inactive: -0.311
GGAGUUUUUAAAUGUUCUCTT against Syt1	inactive: 1.02
GGAUCAAAGACGAAUUCCATT against Tle3	inactive: -0.197
GCACUAAGUUUUGGAUUAATT against Mapkap1	inactive: -0.259
GGAUGCAGAAGAUUUUGUGTT against Ptprcap	inactive: 1.55
GGUCAGAGCAUUGUGAACATT against Abcb10	inactive: 0.474
GCACUUUGAAUAUUGAUCGTT against Hipk3	inactive: 0.0324
CCGAGUGUAAUUUCCUAAATT against Pcdhgb5	inactive: -0.645
GGAGUGGGAAUCUUUGAAATT against 1700022C02Rik	inactive: 0.525
GGUGGACAUGAGGAAACGATT against 2010315L10Rik	inactive: 0.195
GGAUCUUCGGAAGACAUGUTT against Ppp1r3a	inactive: -2.23
GGAUUCUGAUCUUUGGUGUTT against C130036G08	inactive: 0.0768
GGAGCAAAUGAUUUCAUGUTT against Tcp1	inactive: -1.79
CCCACUUUUUUUUAGACUGTT against 2310046K01Rik	inactive: -0.433

Sequence	z-score
GGUAACCAAAACAAUUCUGTT against Cog8	inactive: 0.551
GGUUUUUGGUGUGUUUCUCTT against Ppp1r12c	inactive: 0.113
GCAUGAUAUCAGUGGCAAGTT against Itga11	inactive: -1.86
GCAGUACAAGCCAUCUGUUTT against Olfm4	inactive: -1.44
GGACUUUGUGAGGCUCUUCTT against Lsm2	inactive: 0.622
CCAGCCUAAUCAAAGACCUTT against A930008G19Rik	inactive: 0.378
GGUCUAGAGCAAUUCCAUATT against Olfr656	inactive: -0.0764
GGCCUGGAAGUAGCAUUGUTT against Mrpl17	inactive: 0.0584
CCUGCUCAAAGUAAGUUACTT against Gm503	inactive: -0.419
GCCUUAAGCUAACAGUGGATT against Nrxn3	inactive: 0.169
CCGCCUCUUACCGAAGUUCTT against Mettl4	inactive: -0.232
CCAAGCCUAUUCUUAACUUTT against Gm1960	inactive: 0.0627
CGGCAGAGAUUAUAUCAUCTT against Syn3	inactive: 0.545
GCCCUACUAAGUCAAUUAATT against 1700055D18Rik	inactive: 0.187
GCAUACCUAUUCACGUACGTT against Slc7a4	inactive: -0.0964
GGGUCUGAUCCGACAUUUCTT against Ndufv1	inactive: -0.935
GGAGUCACCAGACUUGUGUTT against 9530004A22Rik	inactive: -0.147
GGUGAGUUAUAAAAGACCATT against Pex12	inactive: 0.328
GGAACUGCCAUUGUAUGGGTT against Myo1g	inactive: -2.42
GGGACUUCAGGGAUUGAUUTT against Atp6v1b1	inactive: -0.251
CCAGGACUUACUCAGUAAUTT against 0610039J04Rik	inactive: -0.283
GGCCUUGAAUUUCUCCUAUTT against Dgcr8	inactive: 0.3
CCUAGUUUGGUGAUGAUGUTT against Apg10l	inactive: -0.93
GGAUGACACACACUAUUAUTT against Plek2	inactive: -0.956
CGGAACAGACCAUCUCACUTT against Plec1	inactive: -1.12
GGCCAUCGAGGACUCUUCUTT against Dyx1c1	inactive: 3.94
